{"source": "PubChem BioAssay AID1224830 | NIAID – 2016", "aim": "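Regulators of TLR4 signalling towards TNF-alpha in macrophage-like cells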 (primary screen)", "cells": "human THP-1 monocytic leukaemia cells, TNF dual-luciferase reporter clone, PMA-differentiated to macrophage-like cells", "reagent": "siRNA pool against human genes, 50 nM", "timing": "LPS for 4 h, given about 3 days after siRNA transfection", "treatment": "bacterial LPS (TLR4 ligand), 10 ng/ml", "read-out": "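Ratio of firefly to renilla light, scaled to the plate median and expressed as a robust z-score per replicate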", "direction": "TNF reporter robust z-score: higher = stronger TNF reporter response to LPS", "call rule": "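a well is active when its z-score exceeds 2.8 or falls below -1.5; control wells carry no call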", "note": "Here is an unselected part of about 18,000 reagents tested. In the full data, about 2,900 (16%) got an active call. 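Calls are made per well; low scores hint the gene aids the LPS response, high scores that it dampens it.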 Repeated entries: four replicate wells of each siRNA pool."}
{"gene": "OR7C1 (GeneID 26664)", "TNF reporter robust z-score": 0.21, "activity call": "inactive"}
{"gene": "OR7C1 (GeneID 26664)", "TNF reporter robust z-score": 0.18, "activity call": "inactive"}
{"gene": "OR7C1 (GeneID 26664)", "TNF reporter robust z-score": 0.54, "activity call": "inactive"}
{"gene": "OR7C1 (GeneID 26664)", "TNF reporter robust z-score": 0.37, "activity call": "inactive"}
{"gene": "DMAC2L (GeneID 27109)", "TNF reporter robust z-score": -0.79, "activity call": "inactive"}
{"gene": "DMAC2L (GeneID 27109)", "TNF reporter robust z-score": 0.39, "activity call": "inactive"}
{"gene": "DMAC2L (GeneID 27109)", "TNF reporter robust z-score": -0.5, "activity call": "inactive"}
{"gene": "DMAC2L (GeneID 27109)", "TNF reporter robust z-score": 0.35, "activity call": "inactive"}
{"gene": "DFFB (GeneID 1677)", "TNF reporter robust z-score": 0.48, "activity call": "inactive"}
{"gene": "DFFB (GeneID 1677)", "TNF reporter robust z-score": 0.65, "activity call": "inactive"}
{"gene": "DFFB (GeneID 1677)", "TNF reporter robust z-score": 0.4, "activity call": "inactive"}
{"gene": "DFFB (GeneID 1677)", "TNF reporter robust z-score": 0.85, "activity call": "inactive"}
{"gene": "CLDN20 (GeneID 49861)", "TNF reporter robust z-score": -0.39, "activity call": "inactive"}
{"gene": "CLDN20 (GeneID 49861)", "TNF reporter robust z-score": 0.2, "activity call": "inactive"}
{"gene": "CLDN20 (GeneID 49861)", "TNF reporter robust z-score": -0.36, "activity call": "inactive"}
{"gene": "CLDN20 (GeneID 49861)", "TNF reporter robust z-score": -0.68, "activity call": "inactive"}
{"gene": "FOXO1 (GeneID 2308)", "TNF reporter robust z-score": 0.64, "activity call": "inactive"}
{"gene": "FOXO1 (GeneID 2308)", "TNF reporter robust z-score": 0.98, "activity call": "inactive"}
{"gene": "FOXO1 (GeneID 2308)", "TNF reporter robust z-score": -0.13, "activity call": "inactive"}
{"gene": "FOXO1 (GeneID 2308)", "TNF reporter robust z-score": 1.18, "activity call": "inactive"}
{"gene": "PEX3 (GeneID 8504)", "TNF reporter robust z-score": -0.57, "activity call": "inactive"}
{"gene": "PEX3 (GeneID 8504)", "TNF reporter robust z-score": -0.78, "activity call": "inactive"}
{"gene": "PEX3 (GeneID 8504)", "TNF reporter robust z-score": -0.82, "activity call": "inactive"}
{"gene": "PEX3 (GeneID 8504)", "TNF reporter robust z-score": -0.15, "activity call": "inactive"}
{"gene": "ADD3 (GeneID 120)", "TNF reporter robust z-score": 1.39, "activity call": "inactive"}
{"gene": "ADD3 (GeneID 120)", "TNF reporter robust z-score": 0.75, "activity call": "inactive"}
{"gene": "ADD3 (GeneID 120)", "TNF reporter robust z-score": -0.72, "activity call": "inactive"}
{"gene": "ADD3 (GeneID 120)", "TNF reporter robust z-score": 0.78, "activity call": "inactive"}
{"gene": "PRDX6 (GeneID 9588)", "TNF reporter robust z-score": -0.57, "activity call": "inactive"}
{"gene": "PRDX6 (GeneID 9588)", "TNF reporter robust z-score": 1.29, "activity call": "inactive"}
{"gene": "PRDX6 (GeneID 9588)", "TNF reporter robust z-score": 7.71, "activity call": "active"}
{"gene": "PRDX6 (GeneID 9588)", "TNF reporter robust z-score": 0.23, "activity call": "inactive"}
{"gene": "IRAG2 (GeneID 4033)", "TNF reporter robust z-score": 1.81, "activity call": "inactive"}
{"gene": "IRAG2 (GeneID 4033)", "TNF reporter robust z-score": 0.46, "activity call": "inactive"}
{"gene": "IRAG2 (GeneID 4033)", "TNF reporter robust z-score": 0.9, "activity call": "inactive"}
{"gene": "IRAG2 (GeneID 4033)", "TNF reporter robust z-score": -0.1, "activity call": "inactive"}
{"gene": "GJA9 (GeneID 81025)", "TNF reporter robust z-score": -0.47, "activity call": "inactive"}
{"gene": "GJA9 (GeneID 81025)", "TNF reporter robust z-score": 0.26, "activity call": "inactive"}
{"gene": "GJA9 (GeneID 81025)", "TNF reporter robust z-score": -0.61, "activity call": "inactive"}
{"gene": "GJA9 (GeneID 81025)", "TNF reporter robust z-score": 0.61, "activity call": "inactive"}
{"gene": "SCAPER (GeneID 49855)", "TNF reporter robust z-score": -0.16, "activity call": "inactive"}
{"gene": "SCAPER (GeneID 49855)", "TNF reporter robust z-score": 0.48, "activity call": "inactive"}
{"gene": "SCAPER (GeneID 49855)", "TNF reporter robust z-score": -0.8, "activity call": "inactive"}
{"gene": "SCAPER (GeneID 49855)", "TNF reporter robust z-score": -1.02, "activity call": "inactive"}
{"gene": "AFF3 (GeneID 3899)", "TNF reporter robust z-score": 0.16, "activity call": "inactive"}
{"gene": "AFF3 (GeneID 3899)", "TNF reporter robust z-score": 0.06, "activity call": "inactive"}
{"gene": "AFF3 (GeneID 3899)", "TNF reporter robust z-score": -0.52, "activity call": "inactive"}
{"gene": "AFF3 (GeneID 3899)", "TNF reporter robust z-score": 0.38, "activity call": "inactive"}

Hits (from the list above):
{"gene": "PRDX6 (GeneID 9588)", "TNF reporter robust z-score": 7.71, "activity call": "active"}
